Tested on: SU-DIPG-IVi-Luc cells implanted in the brainstem
Test: Orthotopic SU-DIPG-IVi-Luc brainstem glioma model in NSG mice
Assay type: in vivo, NOD/LtSz-scid IL2R gamma (NSG) mice
Conditions: GSK-126 6 mg/kg, Atorvastatin 10 mg/kg; after four treatments
Protocol: For the mouse model, the immortalized SU-DIPG-IV line was used. SU-DIPG-IVi was transduced by a luciferase vector (Luc) with a MOI of 10. Two days after birth, 10^5 SU-DIPG-IVi-Luc cells in 2 μl were injected directly into the brainstem through the neck to a depth of 3 mm using a 2 μl NeuroSyringe (Hamilton Neuros, Dutscher, Bruxelles, Belgium) under anesthesia with 2% isoflurane and 50% oxygen enrichment. […] Tumor growth was evaluated non-invasively with anesthetized mice on a Biospace imager (Biospace Lab, Nesles la Vallée, France) 1-2 days after each treatment.
Prior to treatments, mice were micro-tattooed (Aramis kit, BiosebLab, France). Animals were weighed and then receive an i.p. injection in the lower right quadrant following IACUC recommendations. A 1 ml tuberculin syringe and a 26-gauge needle were used with an injection volume of 200 μl for a 30 g mouse (3 mg/ml), adjusted to actual weight each week. Treatment was done 3 times a week, starting at day 8. Tumor growth was evaluated non-invasively on a Biospace imager (Biospace Lab, Nesles la Vallée, France). The entire procedure was carried out on a heating mat at 37° C. The animals were shaved and anesthetized in sterile condition (under PSM-2) in boxes dedicated to imaging. […]

## CC(C)c1c(C(=O)Nc2ccccc2)c(-c2ccccc2)c(-c2ccc(F)cc2)n1CC[C@@H](O)C[C@@H](O)CC(=O)O [Atorvastatin]
  tumor growth (bioluminescence): No significant differences

Reference: US20240408081A1, “NOVEL SYNERGISTIC COMBINATIONS AND METHODS OF USE THEREOF FOR TREATING CANCERS” (UNIVERSITE DE BORDEAUX, priority 2021, published 2024)
